A short description of this data set: Corrosion testing following ASTM G31-72, steel coupons in white water / process water. The following applies: 7 days, 55° C.; for corrosion relative to coupons in Compound A treated reactors: Example 4, tenfold concentrations.

Turning to `NCl` [MCA, Monochloramine], for the setting “Example 3, half immersed coupons, 4 ppm MCA as total active chlorine”, the corrosion observed entry is recorded as “mild corrosion”. Besides, the “corrosion relative to coupons in Compound A treated reactors” value was found to be 2.5 times (gas phase coupons) and 10.5 times (half immersed coupons).

(Values after patent publication US20240383784A1, “ANTIMICROBIAL SYSTEM AND METHOD” (KEMIRA OYJ, priority 2021, published 2024).)
